In the supplement of paper PMC10689618:
This is one part of the list. Many values rest on one well or one pass, so single values are uncertain.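 Labelled rat cortical synaptosomes were engulfed by primary human fetal astrocytes. Engulfment equaled a red/green ratio, corrected for calcein live-cell signal and normalized to the plate median. Compounds were toxic when calcein dropped over 30%, and reduced phagocytosis when below 70% of the median above 5 µM.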

Key:
Human fetal astrocytes [1] = experiment: loss of total cells relative to no-compound high-control median (toxicity); higher = more toxic (fewer cells); conditions: 24 h
Human fetal astrocytes [2] = experiment: synaptosome phagocytosis (pHrodo/calcein intensity ratio) relative to plate median of data wells; higher = more phagocytosis; conditions: 24 h

| SMILES | loss of total cells (Human fetal astrocytes [1]; 1.39 µM) [%] | loss of total cells (Human fetal astrocytes [1]; 2.78 µM) [%] | loss of total cells (Human fetal astrocytes [1]; 5.56 µM) [%] | loss of total cells (Human fetal astrocytes [1]; 11.11 µM) [%] | loss of total cells (Human fetal astrocytes [1]; 22.22 µM) [%] | synaptosome phagocytosis (Human fetal astrocytes [2]; 1.39 µM) [%] | synaptosome phagocytosis (Human fetal astrocytes [2]; 2.78 µM) [%] | synaptosome phagocytosis (Human fetal astrocytes [2]; 5.56 µM) [%] | synaptosome phagocytosis (Human fetal astrocytes [2]; 11.11 µM) [%] | synaptosome phagocytosis (Human fetal astrocytes [2]; 22.22 µM) [%] |
| --- | --- | --- | --- | --- | --- | --- | --- | --- | --- | --- |
| CCCCCCCCCCCCCCCC(=O)OC/C=C(C)/C=C/C=C(C)/C=C/C1=C(C)CCCC1(C)C | -43.5 | -14.3 | 9.9 | 27.2 | 5.9 | 86.9 | 122 | 137 | 81.7 | 80.1 |
| COc1ccc(C(=O)c2ccccc2O)c(O)c1 | -2.1 | -15.9 | -7 | 0.9 | -26.4 | 108 | 99 | 123 | 71.8 | 90.8 |
| COc1cc(C(=O)NCCCCCC(=O)O)cc(OC)c1OC | 12.9 | -41.3 | 8.7 | 14.1 | 0.9 | 144 | 88.9 | 111 | 123 | 111 |
| CC1=C(/C=C/C(C)=C/C=C/C(C)=C/C=C/C=C(C)/C=C/C=C(C)/C=C/C2=C(C)CCCC2(C)C)C(C)(C)CCC1 | -2.5 | -14.9 | 5.7 | -9.4 | 14.7 | 96.2 | 85.8 | 102 | 92.6 | 123 |
| CCOC(=O)[C@@](C)(N)Cc1ccc(O)c(O)c1 | -19.9 | -4 | -11.7 | 6.3 | 24.4 | 99.4 | 109 | 81 | 53.6 | 31.3 |
| CC[C@@]1(O)C(=O)OCc2c1cc1n(c2=O)Cc2cc3cc(O)ccc3nc2-1 | 4.1 | 17 | 18.3 | 16.2 | 11.9 | 118 | 85.4 | 95 | 84.1 | 85.7 |
| O=C(O)c1cc(=O)c(O)c2c(O)c(O)c(O)cc2c1 | 17 | 22.7 | 31.9 | 10.5 | 40.9 | 110 | 135 | 97.4 | 111 | 77.2 |
| CCCCOC(=O)c1ccc(N)cc1 | -3.3 | -7.1 | -5.6 | -7.2 | -14.9 | 111 | 103 | 108 | 94.4 | 86.2 |
| CC1(C)O[C@@H]2C[C@H]3[C@@H]4C[C@H](F)C5=CC(=O)C=C[C@]5(C)[C@@]4(F)[C@@H](O)C[C@]3(C)[C@]2(C(=O)CO)O1 | -5.6 | -39 | -7 | 6.1 | 4.6 | 112 | 72.6 | 108 | 132 | 133 |
| CN1C(C(=O)Nc2ccccn2)=C(O)c2sccc2S1(=O)=O | -33.9 | 11.1 | 8.1 | 41 | 14 | 106 | 128 | 97.5 | 138 | 93.1 |
| CC(=O)O[C@H]1C[C@@H](OC(C)=O)C(C)(C)[C@@H]2C[C@@H](OC(C)=O)[C@@]3(C)C4=CC(=O)O[C@@H](c5ccoc5)[C@]4(C)CC[C@@H]3[C@@]12C | 18.5 | -4 | 37.4 | 45.2 | 24.1 | 104 | 67.7 | 102 | 132 | 90 |
| CN[C@@H]1[C@H](O[C@H]2[C@H](O[C@H]3[C@H](O)[C@@H](O)[C@H](NC(=N)N)[C@@H](O)[C@@H]3NC(=N)N)O[C@@H](C)[C@]2(O)CO)O[C@@H](CO)[C@H](O)[C@H]1O | 11.6 | -12.5 | -28.6 | -0.3 | -29.5 | 120 | 124 | 98.5 | 130 | 106 |
| Cc1cc2cc3c(C)cc(=O)oc3c(C)c2o1 | -18.7 | 6.4 | -7 | 6.6 | 38.6 | 118 | 90.8 | 108 | 104 | 116 |
| COc1ccc(C(=O)c2ccc(O)cc2)c(O)c1O | -22.8 | 8 | -2.3 | 6.5 | 12.2 | 76.2 | 94 | 82.3 | 72.2 | 124 |
| COc1ccc(/C=C/C(=O)Nc2ccccc2C(=O)O)cc1OC [Tranilast] | -32.3 | 27 | 1.9 | 42.3 | 11.5 | 91.8 | 140 | 87.3 | 135 | 68.2 |
| Nc1nc(=O)c2c([nH]1)NCC(CNc1ccc(C(=O)N[C@@H](CCC(=O)O)C(=O)O)cc1)N2C=O (stereo not given in full) | 2.1 | -9.8 | -6.3 | 3.2 | 22.2 | 103 | 119 | 92.4 | 100 | 126 |
| CO/N=C(\C(=O)N[C@@H]1C(=O)N2C(C(=O)O)=C(COC(C)=O)CS[C@H]12)c1csc(N)n1 | -48.1 | 10.1 | -6.9 | -20.3 | 4.5 | 82 | 102 | 99.4 | 110 | 110 |
| CC1=C(C/C=C(\C)CCC[C@H](C)CCC[C@H](C)CCCC(C)C)C(=O)c2ccccc2C1=O | -12.7 | 6 | 35.9 | 41.9 | -13.7 | 66.3 | 100 | 149 | 118 | 86.3 |
| COc1ccc(-c2cc(=O)c3c(O)cc(O)c(-c4cc(-c5cc(=O)c6c(O)cc(O)cc6o5)ccc4OC)c3o2)cc1 | -25 | 13.3 | -8.4 | 9 | 5.6 | 84.3 | 96.6 | 50 | 13.1 | 17.2 |
| C[C@@H]1C[C@H]2[C@@H]3CCC4=CC(=O)C=C[C@]4(C)[C@@]3(F)[C@@H](O)C[C@]2(C)[C@@]1(O)C(=O)COP(=O)(O)O | 4.5 | -30.8 | -2.8 | -22.2 | -19.8 | 97.2 | 126 | 142 | 117 | 81.4 |

Record cards (already shown). Values in the order: loss of total cells (Human fetal astrocytes [1]; 1.39 µM) [%] | loss of total cells (Human fetal astrocytes [1]; 2.78 µM) [%] | loss of total cells (Human fetal astrocytes [1]; 5.56 µM) [%] | loss of total cells (Human fetal astrocytes [1]; 11.11 µM) [%] | loss of total cells (Human fetal astrocytes [1]; 22.22 µM) [%] | synaptosome phagocytosis (Human fetal astrocytes [2]; 1.39 µM) [%] | synaptosome phagocytosis (Human fetal astrocytes [2]; 2.78 µM) [%] | synaptosome phagocytosis (Human fetal astrocytes [2]; 5.56 µM) [%] | synaptosome phagocytosis (Human fetal astrocytes [2]; 11.11 µM) [%] | synaptosome phagocytosis (Human fetal astrocytes [2]; 22.22 µM) [%]
`COc1ccc(C(=O)c2ccc(O)cc2)c(O)c1O` is listed with -22.8 | 8 | -2.3 | 6.5 | 12.2 | 76.2 | 94 | 82.3 | 72.2 | 124
`CO/N=C(\C(=O)N[C@@H]1C(=O)N2C(C(=O)O)=C(COC(C)=O)CS[C@H]12)c1csc(N)n1` is listed with -48.1 | 10.1 | -6.9 | -20.3 | 4.5 | 82 | 102 | 99.4 | 110 | 110
